These results are taken from EP4036575A1.

Protein sequences, listed by entry. Tags and fused reporters are not part of them. Residues count along the entry.
UniProt P10415, residues 1-211: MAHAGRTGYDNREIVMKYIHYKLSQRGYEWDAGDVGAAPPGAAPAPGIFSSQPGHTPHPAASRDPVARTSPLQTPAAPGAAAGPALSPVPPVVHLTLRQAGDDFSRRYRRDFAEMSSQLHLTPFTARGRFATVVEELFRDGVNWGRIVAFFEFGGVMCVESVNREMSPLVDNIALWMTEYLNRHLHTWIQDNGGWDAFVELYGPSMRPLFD

These are yes or no findings as the source states them, for the method shown. Some results given as binding are weak or reduced against the parent protein; the word gives no strength.

The assay concerns the target recombinant human B-cell lymphoma protein 2 alpha His-Tag (Bcl-2) (human) (UniProt P10415). In words: fluorescence of the His-Bcl-2-sensor 5 complex (200 nM) after addition of Bax BH3.

With STKKLSECLKRIGDELDSNM (peptide, UniProt Q07812 55-74, looked up) [Bax BH3 peptide (55-74) wild type], the binding result was “binds”.
